Source: PMC6165360
Tags and fusion partners may be left off the protein sequences shown.

Target: T1, C-reactive protein (CRP) (human) (UniProt P02741)
T1 sequence (looked up, limits assumed): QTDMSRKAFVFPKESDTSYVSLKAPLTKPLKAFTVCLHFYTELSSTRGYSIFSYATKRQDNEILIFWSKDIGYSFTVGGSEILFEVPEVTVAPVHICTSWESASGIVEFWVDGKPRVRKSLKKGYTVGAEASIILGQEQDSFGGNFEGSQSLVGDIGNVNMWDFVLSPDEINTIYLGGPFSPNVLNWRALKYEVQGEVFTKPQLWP
Assay: etched fiber Bragg grating optical biosensor, Langmuir-Freundlich fit
Details: 1 mM Mg2+, 1 mM Ca2+, 3'-C6-SH thiol, 140 mM NaCl, 5 mM KCl, 1 mM MgCl2, 1 mM CaCl2, 50 wt% glycerol, 20 mM Tris, pH 7.4, 10 min incubation, temperature not stated, aptamer immobilized on fiber, commercial protein, folded or branched DNA

Question: “CCCCCGCGGGTCGGCTTGCCGTTCCGTTCGGCGCTTCCCCTTTTTTTTT [CRP-40-17-3'SH]” was tested. Which Ka (1.8 mg/mL ascorbic acid and 1.8 mg/mL urea, beta 0.486 +/- 0.030, N=8) did it give?
Answer: 888000 nM⁻¹

Question: And the Ka (diluted CRP-deficient human plasma, beta 0.816 +/- 0.105, N=3)?
Answer: 768000 nM⁻¹

Question: And the Ka (no interfering substances, beta 0.355 +/- 0.022, N=5)?
Answer: 348000 nM⁻¹
